Results are given in words; binding and its absence hold for the method and conditions named. Some entries that bind do so weakly or less than the wild type.

Protein sequences, listed by entry. Tags and fused reporters are not part of them. Lines headed by an entry give the natural chain unless they say otherwise; changes in a name come on top.
UniProt Q9HD89: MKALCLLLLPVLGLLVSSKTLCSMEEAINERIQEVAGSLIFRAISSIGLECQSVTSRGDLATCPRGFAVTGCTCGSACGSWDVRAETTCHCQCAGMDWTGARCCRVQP

Data on 18 molecules can be found in patent US20050069542A1 (Human Genome Sciences, published 2005).

The target in assay [1] is Flag-tagged recombinant human GMAD (human) (UniProt Q9HD89). In words: phage ELISA. (ELISA stands for enzyme-linked immunosorbent assay.)
Assay [2] has the same target. In words: phage display selection of scFvs.

B1: GMBC665 (scFv)
scFv: EVQLVETGGGLVKPGGSLRLSCAASGFTFSDAWMNWVRQAPGKGLEWVGRIKSKGSGGTIDYAAPVKDRFTISRDDSKNTLYLQMNSLKTEDTALYYCTWDWDFYYGMNVWGQGTMVTVSSGGGGSGGGGSGGGGSSELTQDPAVSVALGQTVRITCQGDSLRSYYASWYQQKPGQAPVLVIYGKNNRPSGIPDRFSGSSSGNTASLTITGAQAEDEADYYCNSRDSSGNHVVFGGGTKLTVLG
With B1, the binding result in assay [1] and in assay [2] was “binds” in each case.

B2: GMBC668 (scFv)
scFv: EVQLVESGGGLVKPGGSLRLSCAASGFTFSDAWMNWVRQAPGKGLEWVGRIKSKGSGGTTDYAAPVKGRFTISRDDSENTLYLQMNSLKTEDTAVYYCTWDHSYYYDMAVWGRGTLVTVSSGGGGSGGGGSGGGGSSELTQDPAVSVALGQTVRITCQGDSLRSYYASWYQQKPGQAPVLVIYGKNNRPSGIPDRFSGSSSGNTASLTITGAQAEDEADYYCNSRDSSGNHVVFGGGTKLTVLG
Regarding B2, the binding entry in assay [1] and in assay [2] was “binds” throughout.

B3: GMBC635 (scFv)
scFv: EVQLVESGGGLVKPGGSLRLSCAASGFTFSDAWMNWVRQAPGKGLEWVGRIKSKGSGGTIDYAAPVKDRYTISRDDSKNTLYLQMNSLKTEDTALYYCTWDWDFYYGMNVWGKGTMVTVSSGGGGSGGGGSGGGGSSELTQDPAVSVALGQTVRITCQGDSLRSYYASWYQQKPGQAPVLVIYGKNNRPSGIPDRFSGSSSGNTASLTITGAQAEDEADYYCNSRDSSGNHVVFGGGTKLTVLG
Take B3: the binding result in assay [1] and in assay [2] was “binds” throughout.

B4: GMBC632 (scFv)
scFv: QVQLVQSGGGLVKPGGSLRLSCAGSGFKFSDAWMNWVRQAPGKGLEWVGRIKSKGSGGTIEYAAPVKDRFIISRDDSKDTLYLQMNSLKTEDTALYYCTWDWDFYYDMNVWGQGTMVTVSSGGGGSGGGGSGGGGSSELTQDPAVSVALGQTVRITCQGDSLRSYYASWYQQKPGQAPVLVIYGKNNRPSGIPDRFFGSSSGNTASLTITGAQAEDEADYYCNSRDSSGNHVVFGGGTKLTVLG
B4: the binding result in assay [1] and in assay [2] was “binds” throughout.

B5: GMBC657 (scFv)
scFv: QMQLMQSGGGLVKPGGSLRLSCAGSGFKFSDAWMNWVRQAPGKGLEWVGRIKSKGSGGTIEYAAPVKDRFIISRDDSKDTLYLQMNSLKTEDTALYYCTWDWDFYYGMNVWGQGTLVTVSSGGGGSGGGGSGGGGSSELTQDPAVSVALGQTVRITCQGDSLRSYYASWYQQKPGQAPVLVIYGKNNRPSGIPDRFSGSSSGNTASLTITGAQAEDEADYYCNSRDSSGNHVVFGGGTKLTVLG
On to B5, for which the binding entry in assay [1] and in assay [2] was “binds” in each case.

B6: GMBC682 (scFv)
scFv: QVQLVESGGGVVKPGGSLRLSCAASGFKFSDAWMNWVRQAPGKGLEWVGRIKSKGSGGTIDYAAPVKDRFTISRDDSKNTLYLQMNSLKTEDTALYYCTWDWDFYYGMNVWGRGTLVTVSSGGGGSGGGGSGGGGSSELTQDPAVSVALGQTVRITCQGDSLRSYYASWYQQKPGQAPVLVIYGKNNRPSGIPDRFSGSSSGNTASLTITGAQAEDEADYYCNSRDSSGNHVVFGGGTKLTVLG
For B6, the binding entry in assay [1] and in assay [2] was “binds” throughout.

B7: GMBC648 (scFv)
scFv: QVQLVESGGGLVKPGGSLRLSCAASGFTFSDAWMNWVRQAPGKGLEWVGRIKSKRSGGTIDYAAPVKDRFTISRDDSKNTLYLQMNSLKTEDTALYYCTWDWDFYYGMNVWGQGTMVTVSSGGGGSGGGGSGGGGSSELTQDPTVSVALGQTVRITCQGDSLRSYYASWYQQKPGQAPVLVIYGKNNRPSGIPDRFSGSSSGNTASLTITGAQAEDEADYYCNSRDSSGNHVVFGGGTKLTVLG
Turning to B7, the binding result in assay [1] and in assay [2] was “binds” each time.

B8: GMBC641 (scFv)
scFv: EVQLVESGGGVVRPGRSLRLSCAASGFSFSSYGMHWVRQAPGKGLEWVSAISGSGGSTYYADSVKGRFTISRDNSKNTLYLQMNSLRAEDTAVYFCAKGGDRSFRAFDFWGQGTMVTVSSGGGGSGGGGSGGGGSSELTQDPAVSVALGQTVRITCQGDSLRSYYASWYQQKPGQAPVLVIYGKNNRPSGIPDRFSGSSSGNTASLTITGAQAEDEADYYCNSRDSSGNHVVFGGGTKLTVLG
With B8, the binding result in assay [1] and in assay [2] was “binds” throughout.

B9: GMBC642 (scFv)
scFv: QVQLQQSGAEVKKPGASVKVSCKASGYTFTIHYMHWVRQAPGQGLEWMGIINPGDGSTSYAQNFQGRVTMTRDTSTSTVYMELSSLRSEDTAVYYCARAGRTVTSHFDYWGRGTLATVSSGGGGSGGGGSGGGGSSELTQDPAVSVALGQTVRITCQGDSLRSYYASWYQQKPGQAPVLVIYGKNNRPSGIPDRFSGSSSGNTASLTITGAQAEDEADYYCNSRDSSGNHVVFGGGTKLTVLG
Take B9: the binding entry in assay [1] and in assay [2] was “binds” throughout.

B10: GMBC627 (scFv)
scFv: GVQLVQSGGEVKKPGASVRVSCKASRYIFSNYGFSWVRQAPGQGLEWMGSIRNDKGSTNYAQGFQDRLTMTTDTSTNTVFMELRSLSSDDTAVYYCASAPYYYGMGIWGKGTLVTVSSGGGGSGGGGSGGGGSQSVLTQPASVSGSSGQSITISCTGTSSDVGGYNYVSWYQQHPGKAPKLMIYEVGNRPSGVSNRFSGSKSGNTASLTISGLQAEDEADYYCSSYTTRSTRVFGGGTKLTVLG
With B10, the binding result in assay [1] and in assay [2] was “binds” in each case.

B11: GMBC628 (scFv)
scFv: QVQLQQSGAEVKKPGASVRVSCKASGYTFTSYGFSWVRQAPGQRLEWMGWISAYKGNANYAEKFQGRVTMTTDTSTNTAYMELRSLRSDDTAVYYCARTRISVAGLDYYYYGLDVWGRGTLVTVSSGGGGSGGGGSGGGGSSELTQDPAVSVALGQTVRITCQGDSLRSYYTNWFQQKPGQAPLLVVYAKNNRPSGIPDRFSGSSSGNTASLTITGAQAEDEADYYCNSRDSSGNHVVFGGGTKLTVLG
For B11, the binding entry in assay [1] and in assay [2] was “binds” each time.

B12: GMBC629 (scFv)
scFv: QVQLVESGGGLVKPGGSLRLSCAGSGFKFSDAWMNWVRQAPGKGLEWVGRIKSKGSGGTIEYAVPVKDRFIISRDDSKDTLYLQMNSLKTEDTALYYCTWDWDFYYGMNVWGQGTLVTVSSGGGGSGGGGSGGGGSSELTQDPAVSVALGQTVRITCQGDSLRSYYTNWFQQKPGQAPLLVVYAKNKRPSGIPDRFSGSSSGNTASLTITGAQAEDEADYYCHSRDSSGNHVLFGGGTKLTVLG
With B12, the binding result in assay [1] and in assay [2] was “binds” throughout.

B13: GMBC729 (scFv)
scFv: QVQLQESGGGLVKPGGSLRLSCAGSGFKFSDAWMNWVRQAPGKGLEWVGRIKSKGSGGTIEYAAPVKDRFIISRDDSKDTLYLQMDSLKTEDTALYYCTWDWDFYYGMNVWGQGTLVTVSSGGGGSGGGGSGGGGSSELTQDPAVSVALGQTVRITCQGDSLRNYYTNWFQQKPGQAPLLVVYAKNKRPSGIPDRFSGSSSGNTASLTITGAQAEDEADYYCHSRDSSGNHVLFGGGTKLTVLG
On to B13, for which the binding result in assay [1] and in assay [2] was “binds” throughout.

B14: GMBC685 (scFv)
scFv: QVQLVESGGVVVQPGGSLRLSCAASGFTFSDAWMNWVRQAPGKGLEWVGRIKSKGSGGTIDYAAPVKDRFTISRDDSKNTLYLQMNSLKTEDTALYYCTWDWDFYYGMNVWGKGTMVTVSSGGGGSGGGGSGGGGSSELTQDPAVSVALGQTVRITCQGDSLRSYYTNWFQQKPGQAPLLVVYAKNKRPSGIPDRFSGSSSGNTASLTITGAQAEDEADYYCHSRDSSGNHVLFGGGTKLTVLG
Regarding B14, the binding entry in assay [1] and in assay [2] was “binds” each time.

B15: GMBC639 (scFv)
scFv: GVQLVQSGAEVKTPGASVKVSCKASGYTFTNHYMHWVRQAPGQGIEWVGVINPSGDGSSYAQTFQGRVTMTRDTSTSTVYMELRSLRSDDTAVYYCARDLFYDFWSDYYRNDQYYYMDVWGKGTLVTVSSGGGGSGGGGSGGGGSSELTQDPAVSVALGQAVRITCQGDSLRSYYASWYQQKPGQAPVLVIYGKNNRPSGIPDRFSGSSSGNTASLTITGAQAEDEADYYCNSRDSSGNHVVFGGGTKLTVLG
On to B15, for which the binding entry in assay [1] and in assay [2] was “binds” throughout.

B16: GMBC638 (scFv)
scFv: QVQLVQSGGGLVKPGESLRLSCEASGFEFNYAWMSWVRQAPGKGLEWVGRSRSVASGGTTDYAAPLQDRFTISRDDSKNTLYLQVNSLKIEDTGVYFCKWEKSEYYGMDVWGRGTMVTVSSGGGGSGGGGSGGGGSQSVLTQPASVSGSPGQSITISCTGTSSDVGGYNYVSWYQQHPGKAPKLMIYEGSKRPSGVSNRFSGSKSGNTASLTISGLQAEDEADYYCSSYTTRSTRVFGGGTKLTVLG
B16: the binding entry in assay [1] and in assay [2] was “binds” each time.

B17: GMBC626 (scFv)
scFv: EVQLVQSGGGLVKPGESLRLSCEASGFEFNYAWMSWVRQAPGKGLEWVGRSRSEASGGTTDYAAPLQDRFTISRDDSKNTLYLQVNSLKIEDTGVYFCKWEKSEYYGMDVWGRGTPVTVSSGGGGSGGGGSGGGGSQSVLTQPASVSGSPGQSITISCTGTSSDVGGYNYVSWYQQHPGKAPKLMIYEGSKRPSGVSNRFSGSKSGNTASLTISGLRAEDEADYYCSSYTTKSTQVFGGGTKLTVLG
B17: the binding result in assay [1] and in assay [2] was “binds” throughout.

B18: GMBC659 (scFv)
scFv: QVQLVESGGGLVKPGESLRLSCEASGFEFNYAWMSWVRQAPGKGLEWVGRSRSEASGGTTDYAAPLQDRFTISRDDSKNTLYLQVNSLKIEDTGVYFCKWEKSEYYGMDVWGRGTLVTVSSGGGGSGGGGSGGGGSQSVLTQPASVSGSPGQSITISCTGTSSDVGGYNYVSWYQQHPGKAPKLMIYEGSKRPSGVSNRFSGSKSGNTASLTISGLQAEDEADYYCSSYTTRSTRVFGGGTKLTVLG
As to B18, the binding result in assay [1] and in assay [2] was “binds” in each case.
